Laboratory results as given in publication PMC11208599.
These are yes or no findings as the source states them, for the method shown. In cells and extracts the contact can be indirect. Binding can be weak; no strength is given.

Target: TNIP3 expressed from adenovirus in cardiomyocytes
Assay: co-IP; cardiomyocytes infected with the indicated adenovirus

binding: binds
B1: STAT1 in cardiomyocytes (protein, UniProt Q9QXK0 1-749)
chain: MSQWFELQQLDSKFLEQVHQLYDDSFPMEIRQYLAQWLEKQDWEHAAYDVSFATIRFHDLLSQLDDQYSRFSLENNFLLQHNIRKSKRNLQDNFQEDPVQMSMIIHNCLKEERKILENAQRFNQAQEGNIQNTVMLDKQKELDSKVRNVKDQVMCIEHEIKTLEDLQDEYDFKCKTSQNRESEANGVAKSDQKQEQLLLHKMFLMLDNKRKEIIHKIRELLNSIELTQNTLINDELVEWKRRQQSACIGGPPNACLDQLQSWFTIVAESLQQVRQQLKKLEELEQKFTYEQDPITKNKQVLSDRTFVLFQQLIQSSFVVERQPCMPTHPQRPLVLKTGVQFTVKLRLLVKLQELNYNLKVKVSFDKDVNEKNTVKGFRKFNILGTHTKVMNMEESTNGSLAAEFRHLQLKEQKNAGNRTNEGPLIVTEELHSLSFETQLCQPGLVIDLETTSLPVVVISNVSQLPSGWASILWYNMLVTEPRNLSFFLNPPCAWWSQLSEVLSWQFSSVTKRGLNADQLSMLGEKLLGPNAGPDGLIPWTRFCKENINDKNFSFWPWIDTILELIKKHLLCLWNDGCIMGFISKERERALLKDQQPGTFLLRFSESSREGAITFTWVERSQNGGEPDFHAVEPYTKKELSAVTFPDIIRNYKVMAAENIPENPLKYLYPNIDKDHAFGKYYSRPKEAPEPMELDDPKRTGYIKTELISVSEVHPSRLQSTENLLPMSPEEFDEMSKIVGSEFDSMMSAV
